Data: US7253177B2, “Synthesis and antimalarial activity of pyrrolo[3,2-f]quinazoline-1,3-diamine derivatives” (United States of America as Represented by the Secretary of …, priority 2004, dated 2007)
Some entries share one result that the patent states for a list of compounds.

System: P. cynomolgi sporozoites
Assay: Presumptive causal prophylactic test against P. cynomolgi in Rhesus monkey
Format: in vivo, Plasmodium cynomolgi
Method: (e). Toxicity Study in Aotus monkey: Protocol: Two malaria double cured Aotus weighing 1027-695 grams respectively received single dose of 3 mg/kg orally of the two compounds 2b and 3e. The monkeys were weighed and pre-bleed for CBC and Chemistry (ALT, BUN, Creatinine) determination, and again three, seven and 15 days post treatment. Signs of toxicity such as anorexia, vomiting, diarrhea or behavior changes were recorded. […] (f). Antimalarial Activity against P. falciparum in Aotus monkey: Protocol: Six (6) malaria naive Aotus lemurinus lemurinus (weigh 787-978 grms) were divided into two groups of two Aotus each plus two controls (MN13177 male and MN 13153 male) and infected with 5×10^6 P. falciparum FVO malaria parasites with 1 ml of an appropriate dilution in RPMI media intravenously on the saphenous vein. When their parasitemia reached 5×10^4 parasites/ul, treatment was started. Giemsa-stained thick blood smears were prepared daily with a prick in the ear marginal vein and parasites enumerated by the Earle and Perez method. Group 1 Aotus received 3e at 1 mg/kg once a day×three days. Group 2 Aotus received 2b at 1 mg/kg once a day×three days. The monkeys were weight and pre-bled for CBC and Chemistry (ALT, BUN, Creatinine) determination, and on day 4 post-treatmetne (PT). Bleedings for Pk determinations were carried out on day 1 PT at time 0, 1 hr, 7:30 hr and 24 hr PT. […]

Compound: CC(=O)N(C(C)=O)c1nc(N(C(C)=O)C(C)=O)c2c(ccc3c2ccn3Cc2ccccc2C(F)(F)F)n1 [Compound 3e, 1,3-Bis(diacetylamino)-7-(2-trifluoromethyl)benzyl-7H-pyrrolo[3,2-f]quinazoline]
- day of parasitemia development after sporozoite challenge (oral 3 mg/kg on days -1, 0, 1, control day 8): 18 to 23 days
- protection compared with untreated control (oral 3 mg/kg, 3 mg/kg): 8 to 15 days
